Test results published in paper PMC4199759.
No constants are given. Whether binding was seen depends on the method and setting. Binding seen in cells or lysates may run through a third protein. Some results given as binding are weak or reduced against the parent protein; the word gives no strength. For some of these results: Tags and fused reporters may be left off the sequences shown.

Protein sequences, listed by entry. Tags and fused reporters are not part of them. Residues count along the entry.
UniProt P15187, residues 1-296: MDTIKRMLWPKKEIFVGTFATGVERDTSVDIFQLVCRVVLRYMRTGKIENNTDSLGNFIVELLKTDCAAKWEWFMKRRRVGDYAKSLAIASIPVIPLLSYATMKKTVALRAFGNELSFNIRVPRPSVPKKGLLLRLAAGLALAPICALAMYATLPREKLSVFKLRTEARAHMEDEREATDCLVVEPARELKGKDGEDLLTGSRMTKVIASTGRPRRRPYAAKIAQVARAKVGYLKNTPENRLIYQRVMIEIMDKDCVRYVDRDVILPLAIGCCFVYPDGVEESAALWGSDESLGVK
UniProt Q9SR33: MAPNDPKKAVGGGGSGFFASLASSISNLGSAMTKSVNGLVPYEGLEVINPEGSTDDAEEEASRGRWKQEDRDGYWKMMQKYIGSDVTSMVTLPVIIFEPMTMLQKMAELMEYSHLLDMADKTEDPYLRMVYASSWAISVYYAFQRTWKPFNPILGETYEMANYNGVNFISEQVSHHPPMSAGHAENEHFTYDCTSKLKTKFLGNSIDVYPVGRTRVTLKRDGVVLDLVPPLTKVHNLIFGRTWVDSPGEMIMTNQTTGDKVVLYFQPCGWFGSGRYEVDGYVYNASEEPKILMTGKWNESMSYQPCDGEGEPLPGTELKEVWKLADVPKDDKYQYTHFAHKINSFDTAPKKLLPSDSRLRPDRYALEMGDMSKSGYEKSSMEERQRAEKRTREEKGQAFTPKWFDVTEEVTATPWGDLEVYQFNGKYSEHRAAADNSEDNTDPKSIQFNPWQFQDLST
UniProt P35843: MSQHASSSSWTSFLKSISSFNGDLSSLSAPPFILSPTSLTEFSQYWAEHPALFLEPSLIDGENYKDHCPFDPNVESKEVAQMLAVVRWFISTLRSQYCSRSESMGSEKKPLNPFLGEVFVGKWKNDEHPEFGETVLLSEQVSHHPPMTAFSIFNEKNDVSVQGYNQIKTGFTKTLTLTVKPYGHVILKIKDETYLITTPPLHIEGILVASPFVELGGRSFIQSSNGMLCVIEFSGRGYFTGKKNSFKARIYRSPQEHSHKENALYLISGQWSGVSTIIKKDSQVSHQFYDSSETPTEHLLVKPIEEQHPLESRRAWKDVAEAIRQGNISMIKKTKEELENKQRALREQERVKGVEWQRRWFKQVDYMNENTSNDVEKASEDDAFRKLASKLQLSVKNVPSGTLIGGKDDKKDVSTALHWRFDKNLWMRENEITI
UniProt Q9SW00: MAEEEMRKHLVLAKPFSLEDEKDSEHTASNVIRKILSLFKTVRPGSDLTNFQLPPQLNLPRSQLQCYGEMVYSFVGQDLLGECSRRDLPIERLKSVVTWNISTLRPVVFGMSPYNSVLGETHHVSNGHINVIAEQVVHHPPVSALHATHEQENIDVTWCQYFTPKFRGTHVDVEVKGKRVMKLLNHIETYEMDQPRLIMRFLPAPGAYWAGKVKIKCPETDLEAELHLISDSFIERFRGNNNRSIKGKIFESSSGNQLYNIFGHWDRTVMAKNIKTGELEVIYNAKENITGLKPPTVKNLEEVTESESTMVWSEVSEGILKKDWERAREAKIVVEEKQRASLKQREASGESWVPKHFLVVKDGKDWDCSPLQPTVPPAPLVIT
UniProt Q9SVZ9: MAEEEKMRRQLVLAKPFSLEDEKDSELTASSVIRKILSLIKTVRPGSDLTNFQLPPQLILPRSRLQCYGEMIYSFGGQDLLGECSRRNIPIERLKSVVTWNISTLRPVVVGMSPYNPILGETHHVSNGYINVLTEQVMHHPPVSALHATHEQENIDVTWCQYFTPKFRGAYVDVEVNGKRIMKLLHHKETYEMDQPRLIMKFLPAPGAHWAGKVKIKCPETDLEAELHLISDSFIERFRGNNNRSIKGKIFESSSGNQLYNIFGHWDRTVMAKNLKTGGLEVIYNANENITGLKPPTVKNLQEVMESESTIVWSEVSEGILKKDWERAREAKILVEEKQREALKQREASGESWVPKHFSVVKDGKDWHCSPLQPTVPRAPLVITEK

T1: nYFP-AtPVA12 VAP protein (Arabidopsis thaliana) (UniProt Q9SHC8)
T1 sequence: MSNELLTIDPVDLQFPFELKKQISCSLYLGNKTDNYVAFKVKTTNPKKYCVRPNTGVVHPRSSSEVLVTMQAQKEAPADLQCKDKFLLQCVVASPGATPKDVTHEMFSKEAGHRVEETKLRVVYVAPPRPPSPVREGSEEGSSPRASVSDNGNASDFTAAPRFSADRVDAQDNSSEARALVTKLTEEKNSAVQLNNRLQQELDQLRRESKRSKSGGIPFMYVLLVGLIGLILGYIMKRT

B1: His6-tagged Arabidopsis ORP3A expressed in yeast (protein, UniProt Q9LZM1 1-453)
chain: MASNDPKNGGGFFASLASSITNFGSAMSKSVNGLMGYEGLEVINPEGSTDDAEEEAGRGRWKQEERDGYWKMMQKYIGSDVTSMVTLPVIIFEPMTMLQKMAELMEYSYLLDMADKTEDPYMRMVYASSWAISVYYAYQRTWKPFNPILGETYEMTNHNGINFIAEQVCHHPPMSAGHAENEHFAYDCTSKLKTKFLGNSIDVYPVGRTRVTLKRDGVVLDLVPPLTKVHNLIFGRTWVDSPGEMVMTNLTTGDKVVLYFQPCGWFGSGRYEVDGYVYNSAEEPKMLMTGKWNESLSYQPCDAEGEPLPGTELKEVWKVAEAPKNDKYQYTHFAHKINSFDTAPKKLLSSDSRLRPDRYALEMGDMSKSGFEKSSLEDRQRAEKKSREEKGQKFAPKWFDETEEVTPTPWGDLEVYQFNGKYSVHRATAENSEDTTDVKLTQFNPWQFQDLSA
B2: His6-tagged Arabidopsis ORP3C expressed in yeast (protein, UniProt Q93Y40 1-457)
chain: MGSPKKNENKGFFAAMTSGFSMFGTAVSRSVNGVQGNEGVEVINPEGGKEDAEEEAQKGRWKDEERDSYWKMMQKYIGSDITSMVTLPVVIFEPMTMLQKMAEIMEYSHLLDQADECEDPYLRLVYASSWAISVYYAFQRTWKPFNPILGETYEMVNHGGISFISEQVSHHPPMSAGHAENEHFIYDITSKLKTKLLGNSVDVYPVGRTRVTLKKDGVVLDLVPPLTKIHNLIFGRTWVDSPGEMVMTNLTTGDKVVLYFQPCGWFGSGRYEVDGYVYSAAEEPKIMMTGKWNEKMSYQPCDAEGEPLPGTELKEVWHLADVPKNDNFQYTHFAHKINSFDTAPAKLLASDSRIRPDRYSLEQGDLSKAGSEKHSLEERQRAEKRTRETKGQKFTPRWFDLTDEITPTPWGDIEVYQYNGKYNEHRDTAESSSSASNETDLKSIEFNPWQYGNISTE
B3: His6-tagged Arabidopsis ORP4C expressed in yeast (protein, UniProt Q9LVD4 1-379)
chain: MKKHVMLVKPFSLEDEKDSENTPPNLIQRILSLFKNVRPGSDLTNFQLPPQMNLARSQLQCYGEIVYSFDGHDLLGECSRRDKPIERMKAMVTWYISTLRPLIFGLAPYNPVIGETHHVSNGHINVLAEQISHHPPVSALHATHEKENVDVLLCQYFTPKFRGAYVDVEVKGKRVVKLLNHKETYEMNQPKLLMTFLPAMGAHWAGKIVIKCPETGLGAELQLLSDSFLSRFTGNNKRAIKGKIFESSSRKQLYEISGHWDRTVTAKNTKTGQLEVIYKASENIAKLKTPIVENLQEVSESESAVVWGEVSEGIVTNNWEKAREAKRDVEEKQRESLRKRKASGQSWIPKHFSVARTGKDWDCVPLQPTVPRAPIVVPL
B4: His6-tagged Osh3p expressed in yeast (protein, UniProt P38713 1-996)
chain: METIDIQNRSFVVRWVKCGRGDVINYQIKPLKKSIEVGIYKKLKSSVDDHASAVHIAPDTKTLLDYTTKSLLHKGSSSNIEEHHRRSSQHSHSSSNGSDNKRKERSYSSLSISGIQQQSQEIPLREKLSASGFTLVKRVGNVSGNTMVQGDLEVKDTDYYYAFILDNSSSKNAKKKILFNASVINGDNQSMISTRSTPPARPTALSRTSTQQDMLFRVGQGRYLQGYLLKKRRKRLQGFKKRFFTLDFRYGTLSYYLNDHNQTCRGEIVISLSSVSANKKDKIIIIDSGMEVWVLKATTKENWQSWVDALQTCFDDQFEDKDTSTLEENPDILDDDKEVINKSSPQDHDHLTPTATTKSALSHRQHTQKDMDDIYVPLPSESYATFSMNLRLIQQRLEQCKKDSLSYKPTTLHQRSEGLNGTHSSSSVFTNNRVSSFNHSSSGMTSSDSLASEEVPSNKTYIEHALYNQLADLEVFVSRFVTQGEVLFKDHQILCKKAKDTRVSLTSYLSENDEFFDAEEEISRGVIILPDTEDDINNIVEETPLLGKSDQNEFTKEVQLSGSEQIASSSVESYTTNDENHSRKHLKNRHKNRRRGHPHHQKTKSAQSSTETFTSKDLFALSYPKSVTRRNDIPEAAASPPSLLSFLRKNVGKDLSSIAMPVTSNEPISILQLISETFEYAPLLTKATQRPDPITFVSAFAISFLSIYRDKTRTLRKPFNPLLAETFELIREDMGFRLISEKVSHRPPVFAFFAEHLDWECSYTVTPSQKFWGKSIELNNEGILRLKFKTTGELFEWTQPTTILKNLIAGERYMEPVNEFEVHSSKGDKSHILFDKAGMFSGRSEGFKVSIIPPPSSNRKKETLAGKWTQSLANETTHETIWEVGDLVSNPKKKYGFTKFTANLNEITEIEKGNLPPTDSRLRPDIRAYEEGNVDKAEEWKLKLEQLQRERRNKGQDVEPKYFEKVSKNEWKYITGPKSYWERRKKHDWSDISQLW
B5: His6-tagged Osh6p expressed in yeast (protein, UniProt Q02201 1-448)
chain: MGSKKLTVGSDSHRLSKSSFSSNKSSHSATKDQPIDTDDIDEDDESGHNIILNIISQLRPGCDLTRITLPTFILEKKSMLERVTNQLQFPEFLLQAHSEKDPLKRFLYVMKWYLAGWHIAPKAVKKPLNPVLGEYFTAYWDLPNKQQAYYISEQTSHHPPECAYFYMIPESSIRVDGVVIPKSRFLGNSSAAMMDGSTVLQFLDIKDGNGKPEKYVLTQPNVYVRGILFGKMRIELGDHMIIKSPNFQADIEFKTKGYVFGTYDAIEGTVKDYDGNAYYEISGKWNDVMYLKDLKQPRSSPKVFLDTHKESPLRPKVRPLSEQGEYESRKLWKKVTDALAVRNHPVATEEKFQIEDHQRQLAKKRIEDGVEFHPKLFRRSKPGEDLDYCIYKNIPVDEDPEKQIRSILQIAPILPGQQFTDKFFIPAFEKIKSQKKMIENEKQNPAKQ
B6: Osh6p, chromosomally expressed, 6xHA-tagged (protein, UniProt Q02201 1-448)
chain: B5 chain
B7: Osh7p, chromosomally expressed, 6xHA-tagged (protein, UniProt P38755 1-437)
chain: MALNKLKNIPSLTNSSHSSINGIASNAANSKPSGADTDDIDENDESGQSILLNIISQLKPGCDLSRITLPTFILEKKSMLERITNQLQFPDVLLEAHSNKDGLQRFVKVVAWYLAGWHIGPRAVKKPLNPILGEHFTAYWDLPNKQQAFYIAEQTSHHPPESAYFYMIPESNIRVDGVVVPKSKFLGNSSAAMMEGLTVLQFLDIKDANGKPEKYTLSQPNVYARGILFGKMRIELGDHMVIMGPKYQVDIEFKTKGFISGTYDAIEGTIKDYDGKEYYQISGKWNDIMYIKDLREKSSKKTVLFDTHQHFPLAPKVRPLEEQGEYESRRLWKKVTDALAVRDHEVATEEKFQIENRQRELAKKRAEDGVEFHSKLFRRAEPGEDLDYYIYKHIPEGTDKHEEQIRSILETAPILPGQTFTEKFSIPAYKKHGIQKN
B8: Scs2p VAP protein, chromosomally expressed, 6xHA-tagged (protein, UniProt P40075 1-244)
chain: MSAVEISPDVLVYKSPLTEQSTEYASISNNSDQTIAFKVKTTAPKFYCVRPNAAVVAPGETIQVQVIFLGLTEEPAADFKCRDKFLVITLPSPYDLNGKAVADVWSDLEAEFKQQAISKKIKVKYLISPDVHPAQNQNIQENKETVEPVVQDSEPKEVPAVVNEKEVPAEPETQPPVQVKKEEVPPVVQKTVPHENEKQTSNSTPAPQNQIKEAATVPAENESSSMGIFILVALLILVLGWFYR
B9: AtOrp3A-cYFP protein (protein, UniProt Q9LZM1 1-453)
chain: B1 chain

Target: FLAG-tagged CNV p33 replication protein (plasmid pESC/DI72/Flag33) (Cucumber necrosis virus (CNV)) (UniProt P15187)
Assay: co-IP

| Molecule | binding |
| --- | --- |
| His6-tagged Arabidopsis ORP3B expressed in yeast (from UniProt Q9SR33 1-458) | binds |
| His6-tagged Osh5p expressed in yeast (from UniProt P35843 1-434) | binds |
| His6-tagged Arabidopsis ORP4B expressed in yeast (from UniProt Q9SW00 1-383) | binds |
| His6-tagged Arabidopsis ORP4A expressed in yeast (from UniProt Q9SVZ9 1-386) | binds |

Target: FLAG-tagged CNV p33 replication protein (plasmid pESC/DI72/Flag33) (Cucumber necrosis virus (CNV)) (UniProt P15187)
Assay: co-IP
Remark: another data set of the same source

| Molecule | binding |
| --- | --- |
| B1 | binds |
| B2 | binds |
| B3 | binds |
| B4 | binds |
| B5 | binds |

Target: FLAG-tagged tombusvirus p33 replication protein (plasmid pGBK-Flag33-CUP1/DI72-GAL1) (not stated (tombusvirus)) (UniProt P15187)
Assay: co-IP

| Molecule | binding |
| --- | --- |
| B6 | binds |
| B7 | binds |
| B8 | binds |

Target: T1, nYFP-AtPVA12 VAP protein (Arabidopsis thaliana)
Assay: split reporter; BiFC in N. benthamiana leaves, nYFP and cYFP fusions from the 35S promoter, 48 h after agro-infiltration; confocal laser imaging

| Molecule | binding |
| --- | --- |
| B9 | binds |
